Results are given in words; binding and its absence hold for the method and conditions named. In cells and extracts the contact can be indirect. Some binding calls cover weakened binding; strength is not graded here.

Assay [1] addresses T1, receptor-interacting protein kinase 1 (mouse (endogenous in left ventricle)) (UniProt Q60855).
T1 sequence: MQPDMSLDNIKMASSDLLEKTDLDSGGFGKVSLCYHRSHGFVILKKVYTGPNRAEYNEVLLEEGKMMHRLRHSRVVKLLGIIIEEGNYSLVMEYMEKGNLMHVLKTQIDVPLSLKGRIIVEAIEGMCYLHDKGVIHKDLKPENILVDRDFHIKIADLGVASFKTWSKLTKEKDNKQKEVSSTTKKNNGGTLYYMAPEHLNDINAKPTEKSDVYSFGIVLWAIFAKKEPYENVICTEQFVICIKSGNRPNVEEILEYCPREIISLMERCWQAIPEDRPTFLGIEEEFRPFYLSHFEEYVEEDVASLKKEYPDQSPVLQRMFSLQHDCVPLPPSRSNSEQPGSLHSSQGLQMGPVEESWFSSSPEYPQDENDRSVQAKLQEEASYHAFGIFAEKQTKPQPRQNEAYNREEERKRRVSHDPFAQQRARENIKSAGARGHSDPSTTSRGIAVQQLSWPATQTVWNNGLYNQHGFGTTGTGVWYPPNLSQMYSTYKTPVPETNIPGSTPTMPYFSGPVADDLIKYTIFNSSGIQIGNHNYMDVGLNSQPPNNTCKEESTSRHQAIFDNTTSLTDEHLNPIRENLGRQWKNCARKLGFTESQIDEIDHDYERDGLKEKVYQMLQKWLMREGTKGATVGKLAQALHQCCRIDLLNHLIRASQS
In words: co-IP; mouse myocardial (left-ventricular) tissue lysed in RIPA buffer with protease and phosphatase inhibitors; 1 μg primary antibody (TGFBR1, TAK1 or RIPK1) or IgG, 4°C; protein A/G beads overnight; western blot; groups of mice: control, shTGFBR1 + control, HFpEF (HFD + L-NAME), shTGFBR1 + HFpEF; which antibody precipitated in which panel is not told.

Assay [2] deals with T2, receptor-interacting protein kinase 1 (mouse (endogenous in left ventricle)), Q60855.
T2 chain: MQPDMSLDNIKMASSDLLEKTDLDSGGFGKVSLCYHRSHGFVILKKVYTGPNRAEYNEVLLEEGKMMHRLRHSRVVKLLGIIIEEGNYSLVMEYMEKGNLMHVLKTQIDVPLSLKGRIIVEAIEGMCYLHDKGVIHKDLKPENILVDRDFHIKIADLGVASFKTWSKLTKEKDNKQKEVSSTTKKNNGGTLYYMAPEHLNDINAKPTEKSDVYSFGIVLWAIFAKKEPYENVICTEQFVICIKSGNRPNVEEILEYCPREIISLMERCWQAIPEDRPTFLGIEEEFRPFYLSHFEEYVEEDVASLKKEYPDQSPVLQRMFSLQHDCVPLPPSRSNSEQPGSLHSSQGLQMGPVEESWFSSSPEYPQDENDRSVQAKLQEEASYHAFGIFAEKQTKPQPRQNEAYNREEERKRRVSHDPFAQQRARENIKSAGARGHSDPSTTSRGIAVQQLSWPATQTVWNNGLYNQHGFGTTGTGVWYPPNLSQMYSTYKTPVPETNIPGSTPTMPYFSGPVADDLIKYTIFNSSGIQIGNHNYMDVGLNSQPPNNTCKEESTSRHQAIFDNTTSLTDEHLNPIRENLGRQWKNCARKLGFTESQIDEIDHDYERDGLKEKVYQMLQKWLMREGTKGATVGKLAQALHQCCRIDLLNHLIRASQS
The description is as above. The note with it: remark: other sources report otherwise.

B1: caspase-8 (enzyme, UniProt O89110 1-480)
chain: MDFQSCLYAIAEELGSEDLAALKFLCLDYIPHKKQETIEDAQKLFLRLREKGMLEEGNLSFLKELLFHISRWDLLVNFLDCNREEMVRELRDPDNAQISPYRVMLFKLSEEVSELELRSFKFLLNNEIPKCKLEDDLSLLEIFVEMEKRTMLAENNLETLKSICDQVNKSLLGKIEDYERSSTERRMSLEGREELPPSVLDEMSLKMAELCDSPREQDSESRTSDKVYQMKNKPRGYCLIINNHDFSKAREDITQLRKMKDRKGTDCDKEALSKTFKELHFEIVSYDDCTANEIHEILEGYQSADHKNKDCFICCILSHGDKGVVYGTDGKEASIYDLTSYFTGSKCPSLSGKPKIFFIQACQGSNFQKGVPDEAGFEQQNHTLEVDSSSHKNYIPDEADFLLGMATVKNCVSYRDPVNGTWYIQSLCQSLRERCPQGDDILSILTGVNYDVSNKDDRRNKGKQMPQPTFTLRKKLFFPP
B1: the binding entry in assay [1] is recorded as “binds”.

B2: caspase-1 (enzyme, UniProt P29452 1-402)
chain: MADKILRAKRKQFINSVSIGTINGLLDELLEKRVLNQEEMDKIKLANITAMDKARDLCDHVSKKGPQASQIFITYICNEDCYLAGILELQSAPSAETFVATEDSKGGHPSSSETKEEQNKEDGTFPGLTGTLKFCPLEKAQKLWKENPSEIYPIMNTTTRTRLALIICNTEFQHLSPRVGAQVDLREMKLLLEDLGYTVKVKENLTALEMVKEVKEFAACPEHKTSDSTFLVFMSHGIQEGICGTTYSNEVSDILKVDTIFQMMNTLKCPSLKDKPKVIIIQACRGEKQGVVLLKDSVRDSEEDFLTDAIFEDDGIKKAHIEKDFIAFCSSTPDNVSWRHPVRGSLFIESLIKHMKEYAWSCDLEDIFRKVRFSFEQPEFRLQMPTADRVTLTKRFYLFPGH
Regarding B2, in assay [1], the binding entry is reported as “binds”.

B3: RIPK3, Q9QZL0 1-486 (enzyme)
chain: MSSVKLWPTGASAVPLVSREELKKLEFVGKGGFGVVFRAHHRTWNHDVAVKIVNSKKISWEVKAMVNLRNENVLLLLGVTEDLQWDFVSGQALVTRFMENGSLAGLLQPECPRPWPLLCRLLQEVVLGMCYLHSLNPPLLHRDLKPSNILLDPELHAKLADFGLSTFQGGSQSGSGSGSGSRDSGGTLAYLDPELLFDVNLKASKASDVYSFGILVWAVLAGREAELVDKTSLIRETVCDRQSRPPLTELPPGSPETPGLEKLKELMIHCWGSQSENRPSFQDCEPKTNEVYNLVKDKVDAAVSEVKHYLSQHRSSGRNLSAREPSQRGTEMDCPRETMVSKMLDRLHLEEPSGPVPGKCPERQAQDTSVGPATPARTSSDPVAGTPQIPHTLPFRGTTPGPVFTETPGPHPQRNQGDGRHGTPWYPWTPPNPMTGPPALVFNNCSEVQIGNYNSLVAPPRTTASSSAKYDQAQFGRGRGWQPFHK
On to B3, for which the binding entry in assay [2] was “binds”.

These data come from PMC12396675.
